Assay results taken from PMC9112550, “Optimization of the antimicrobial peptide Bac7 by deep mutational scanning” (BMC Biology, 2022).

System: E. coli TOP10
Experiment: Deep mutational scanning, site-saturation Bac7_1-23 library, intracellular self-screening with NGS
Format: cell-based
Conditions: site-saturation library, 156,779 variants; rank 1 = most active
Protocol: A focused strategy was pursued to generate diversity at positions 5, 18, 19, and 20 in the Bac7_1-23 peptide. […] Degeneration was introduced by using the QuikChange technique, amplifying the pBAD plasmid containing the Bac7_1-23 gene using a mixture of 20 oligonucleotides (Additional file 1: Table S1) at a final concentration of 0.3 μM and Phusion® High-Fidelity PCR Master Mix in HF buffer. The amplification was performed using 20 cycles of 98°C for 10 s, 60°C for 15 s, and 72°C for 10 s. The PCR product was treated with the enzyme Dpn1 to remove the template plasmid and subsequently purified. The purified product was used to transform 20 μl of CloneCatcher™ Gold DH5G Electrocompetent E. coli (Genlantis, Burlington, USA) cells using electroporation.
To assess the antimicrobial activity of multiple peptides in parallel when expressed intracellularly in E. coli TOP10, previously prepared aliquots containing E. coli plasmid libraries created by either random mutagenesis or site-saturation mutagenesis were used. For both approaches, three aliquots containing approximately 500 million cells each of E. coli TOP10 harboring peptide-encoding DNA sequences on the pBAD plasmid were thawed and added to three 1-l baffled shake flasks containing 100 ml of LB medium + 100 μg ml^−1 carbenicillin. The cultures were grown for roughly 7 h at 37°C.

## RRIRPRPPRLPRPRPRPYMKPRP [site-saturation library peptide ID 127525]
  Rank by antimicrobial activity: 1
